Measured values as given in the supplement of paper PMC10849652.
This is one part of the list.

What was measured:
Experiment in all cases: log2 fold change, soluble protein after heating vs DMSO (PISA); higher = thermal stabilisation; K562 cells, 10 uM, 30 min; active = over 0.2 and 3.5 SD of the protein, either way, in both replicates (recomputed)
[1] = compound: C1=CC=C(C=C1)[C@H](COC2=CC3=C(C=C2)NC(=O)N3)NC(=O)C4=CC=CN(C4=O)CC5=CC(=C(C=C5)F)F
Outline: (§1)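 Soluble protein was quantified by TMTpro 16plex LC-MS/MS after channel sums were equalised. It was obtained as the supernatant after 21,000xg for 90 min from pooled aliquots of K562 cells (2×10^6 cells/mL, 10 μM compound, 30 min) heated for 3 min across 48°C-58°C and extracted in PBS with 0.5% NP-40 at 4°C. Thermal stability values are relative to control samples and come from duplicates. They are given as log2 fold changes.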

[2] = compound: CC1=C(SC2=C1C(=N[C@H](C3=NN=C(N32)C)CC(=O)N)C4=CC=C(C=C4)Cl)C
Outline: as §1

[3] = compound: CC1=C2C(=CC=C1)N=C(N(C2=O)C3=CC=CC=C3C)CN4C=NC5=C(N=CN=C54)N
Outline: as §1

[4] = compound: Cc1sc2c(c1C)C(c1ccc(Cl)cc1)=N[C@@H](CC(=O)OC(C)(C)C)c1nnc(C)n1-2
Outline: as §1

[5] = compound: c1ccc([C@@H]2C[C@H]2NC2CCNCC2)cc1
Outline: as §1

[6] = compound: C1=CC2=NC=CN=C2C=C1/C=C/3\C(=O)NC(=O)S3
Outline: as §1

ibrutinib = compound: C=CC(=O)N1CCC[C@@H](n2nc(-c3ccc(Oc4ccccc4)cc3)c3c(N)ncnc32)C1 [ibrutinib]
Outline: as §1

[7] = compound: CC1=C(C=C(C=C1)NC(=O)C2=CC(=CC=C2)C(C)(C)C#N)NC3=CC4=C(C=C3)N=CN(C4=O)C
Outline: as §1

barasertib = compound: CCN(CCCOc1ccc2c(Nc3cc(CC(=O)Nc4cccc(F)c4)[nH]n3)ncnc2c1)CCOP(=O)(O)O [barasertib]
Outline: as §1

[8] = compound: CCn1cc(-c2ccnc3[nH]c(-c4cccc(CN(C)C)c4)cc23)c(-c2ccc(NC(=O)N(C)C)cc2)n1
Outline: as §1

rosiglitazone = compound: CN(CCOC1=CC=C(C=C1)C[C@H]2C(=O)NC(=O)S2)C3=CC=CC=N3 (racemic) [rosiglitazone]
Outline: as §1

[9] = compound: CN1CCC(CNc2ccc3ncc(-c4cccc(OC(F)(F)F)c4)n3n2)CC1
Outline: as §1

sotrastaurin = compound: CN1CCN(c2nc(C3=C(c4c[nH]c5ccccc45)C(=O)NC3=O)c3ccccc3n2)CC1 [sotrastaurin]
Outline: as §1

filanesib = compound: CON(C)C(=O)N1N=C(c2cc(F)ccc2F)S[C@@]1(CCCN)c1ccccc1 [filanesib]
Outline: as §1

pictilisib = compound: CS(=O)(=O)N1CCN(Cc2cc3nc(-c4cccc5[nH]ncc45)nc(N4CCOCC4)c3s2)CC1 [pictilisib]
Outline: as §1

[10] = compound: CS(=O)(=O)c1ccc(-c2cnc(N)c(C(=O)Nc3ccccc3)n2)cc1
Outline: as §1

gandotinib = compound: Cc1cc(Nc2cc(CN3CCOCC3)c3nc(C)c(Cc4ccc(Cl)cc4F)n3n2)n[nH]1 [gandotinib]
Outline: as §1

bafetinib = compound: Cc1ccc(NC(=O)c2ccc(CN3CC[C@H](N(C)C)C3)c(C(F)(F)F)c2)cc1Nc1nccc(-c2cncnc2)n1 [bafetinib]
Outline: as §1

[11] = compound: Cc1cccc(CC(=O)N2CCc3c2ccc(-c2cn(C)c4ncnc(N)c24)c3F)n1
Outline: as §1

[12] = compound: NC(=O)Nc1cc(-c2cccc(F)c2)sc1C(=O)N[C@H]1CCCNC1
Outline: as §1

entinostat = compound: Nc1ccccc1NC(=O)c1ccc(CNC(=O)OCc2cccnc2)cc1 [entinostat]
Outline: as §1

vorinostat = compound: O=C(CCCCCCC(=O)Nc1ccccc1)NO [vorinostat]
Outline: as §1

Measured: log2 fold change

IBA57 (UniProt Q5T440)
inactive: [1] -0.018 | [2] 0.068 | [3] 0.057 | [4] 0.003 | [5] -0.007

HSD17B4 (UniProt P51659)
inactive: [1] 0.01 | [2] 0.001 | [3] 0.025 | [4] 0.007 | [5] -0.009

HMGN4 (UniProt O00479)
inactive: [1] 0.065 | [2] -0.041 | [3] -0.362 | [4] 0.012 | [5] -0.112

HMCN1 (UniProt Q96RW7)
inactive: [1] -0.101 | [2] -0.039 | [3] -0.01 | [4] -0.003 | [5] -0.01

HIBCH (UniProt Q6NVY1)
inactive: [1] -0.035 | [2] 0.08 | [3] 0.053 | [4] -0.031 | [5] -0.028

HNRNPA0 (UniProt Q13151)
inactive: [1] 0.231 | [2] -0.054 | [3] -0.05 | [4] -0.352 | [5] 0.109

HNRNPD isoform 4 (UniProt Q14103)
inactive: [1] 0.101 | [2] -0.156 | [3] -0.401 | [4] 0.017 | [5] 0.201

HNRNPU (UniProt Q00839)
inactive: [1] -0.014 | [2] -0.155 | [3] -0.103 | [4] 0.088 | [5] 0.021

ICE1 (UniProt Q9Y2F5)
inactive: [1] -0.05

HM13 isoform 2 (UniProt Q8TCT9)
inactive: [1] 0.007 | [2] 0.017 | [3] 0 | [4] -0.006 | [5] 0.002

HSBP1 (UniProt O75506)
inactive: [1] 0.172

HINT1 (UniProt P49773)
inactive: [1] -0.041 | [2] 0.062 | [3] -0.011 | [4] -0.082 | [5] 0.018

HNRNPA1 (UniProt H0YH80)
inactive: [1] 0.122 | [2] -0.275 | [3] -0.427 | [4] 0.229 | [5] 0.07

HK2 (UniProt P52789)
inactive: [1] -0.006 | [2] 0.045 | [3] 0.007 | [4] -0.025 | [5] -0.016

ICAM1 (UniProt P05362)
inactive: [1] -0.005 | [2] 0.021 | [3] 0.049 | [4] 0.012 | [5] 0.031

Two entries drawn at random from the list so far:
ICAM1 (UniProt P05362)
inactive: [1] -0.005 | [2] 0.021 | [3] 0.049 | [4] 0.012 | [5] 0.031

HSBP1 (UniProt O75506)
inactive: [1] 0.172

Further entries follow.

ICAM5 (UniProt Q9UMF0)
inactive: [1] -0.071 | [2] -0.094 | [3] 0.085 | [4] -0.103 | [5] 0.05

HSPG2 (UniProt P98160)
inactive: [1] -0.007 | [2] 0.104 | [3] -0.003 | [4] -0.014 | [5] 0.012

HSPBP1 isoform 3 (UniProt Q9NZL4)
inactive: [1] -0.032 | [2] 0.022 | [3] 0.024 | [4] 0.023 | [5] -0.001

HGS (UniProt O14964)
inactive: [1] -0.019 | [2] 0.063 | [3] 0.087 | [4] -0.032 | [5] -0.02

ICAM4 (UniProt Q14773)
inactive: [1] -0.009 | [2] 0.019 | [3] 0.023 | [4] -0.102 | [5] -0.034

HYOU1 (UniProt Q9Y4L1)
inactive: [1] 0.031 | [2] -0.032 | [3] -0.011 | [4] -0.014 | [5] -0.02

HNRNPM (UniProt P52272)
inactive: [1] -0.001 | [2] -0.244 | [3] -0.146 | [4] 0.024 | [5] 0.056

HM13 (UniProt Q8TCT9)
inactive: [1] 0.028 | [2] 0.108 | [3] 0.005 | [4] -0.065 | [5] 0.017

HINT2 (UniProt Q9BX68)
inactive: [1] 0.004 | [2] 0.067 | [3] 0.114 | [4] -0.203 | [5] 0.078

HIVEP1 (UniProt P15822)
inactive: [6] 0.05 | [1] 0.022 | ibrutinib -0.041 | [7] 0.052 | barasertib 0.011 | [8] 0.139 | rosiglitazone 0.063 | [9] -0.028 | sotrastaurin -0.007 | filanesib 0.02 | pictilisib -0.046 | [10] 0.015 | gandotinib -0.194 | bafetinib 0.096 | [11] -0.026 | [12] -0.149 | entinostat -0.057 | vorinostat 0.056
